Laboratory results as given in PubChem BioAssay AID2685 (National Center for Advancing Translational Sciences (NCATS), 2010).
This is one part of the list. Further columns of the screen follow, without active or inactive calls. Compounds called inactive in the main read-out are mostly missing here. Potencies come from curve fits of mixed quality, noted in brackets.

Test: qHTS Assay for Lipid Storage Modulators in Drosophila S3 Cells;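 as to cell number change: cells counted by Cell Tracker Red CMTPX staining in the red channel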
Details: BODIPY lipid droplet fluorescence, 18-24 h; for cell number change: measured here: cell count max response, cells fed with added oleic acid
Procedure, shortened: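 Laser-scanning cytometry quantifies lipid droplet accumulation (500–530 nm total intensity; droplet/cell object ratio) in oleic acid-fed (400 uM added) Drosophila S3 cells treated with a concentration series. 20 uM Triacsin C defined 100% inhibition.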

[1] = measured here: lipid fluorescence (Fed channel) AC50, cells fed with added oleic acid
[2] = measured here: cell number channel AC50, cells fed with added oleic acid

Row | SMILES | cell number change [%] | AC50 [1] | AC50 [2]
1 | O=C(Nc1cccc(S(=O)(=O)N2CCCC2)c1)c1ccc2c(c1)OCO2 | 0.642 | 0.0731 µM [rising, full curve] | 
2 | O=C(Nc1ccccc1)c1ncoc1-c1ccc(Cl)cc1 | 31 |  | 32.6 µM [rising, single point]
3 | CSc1nc(-c2ccccc2)c2cc(Cl)ccc2n1 | -58.6 | 0.651 µM [falling, full curve] | 0.58 µM [falling, full curve]
4 | CCOc1cc(/C=C(/C#N)c2ccc(F)cc2)ccc1OCc1ccc(C(=O)O)o1 | -3.73 | 29.1 µM [rising, single point] | 0.82 µM [rising, single point]
5 | Cc1cccc(CS(=O)(=O)c2ncc(Cl)c(C(=O)Nc3nnc(C(C)C)s3)n2)c1 | 5.28 |  | 
6 | O=C1C2CCCN2C(=O)N1CCCCN1CCN(c2ccccc2)CC1 (stereo unspecified) | -3.96 | 14.6 µM [falling, single point] | 
7 | COc1ccc(NS(=O)(=O)c2ccc3nc(COc4cccc5ccccc45)[nH]c3c2)cc1 | -5.21 | 1.46 µM [rising, partial curve] | 
8 | N#Cc1c(N)nc2c3c(sc(=N)c2c1N)NC(=O)CC3c1c(F)cccc1Cl (stereo unspecified) | 10.8 | 6.51 µM [falling, single point] | 5.8 µM [falling, single point]
9 | CCCCn1nc(C(=O)NC2=NCCS2)c2ccccc2c1=O | 27.4 | 0.82 µM [rising, full curve, poor fit] | 
10 | O=C(NC1CCSC1=O)c1cccc(C(=O)NC2CCSC2=O)c1 (stereo unspecified) | 0.527 | 23.1 µM [falling, single point] | 
11 | CCOC(=O)c1sc(NC(=O)/C=C/c2cnn(C)c2C)c(C(=O)OC(C)C)c1C |  | 0.326 µM [rising, full curve] | 0.517 µM [rising, full curve]
12 | COc1ccccc1NC(=O)NNC(=O)c1ccc(-c2ccccc2)cc1 | 17.6 | 15.8 µM [rising, partial curve] | 
13 | O=C(N/N=C/c1ccc(F)cc1)c1ccc(Br)cc1 | 12.9 | 29.1 µM [falling, single point] | 
14 | O=S(=O)(c1cccc(-c2nnco2)c1)N1CCOCC1 | 99.4 |  | 
15 | CCN1CCN(C(=O)c2cc(S(=O)(=O)N3CC(C)CC(C)C3)ccc2Cl)CC1 (stereo unspecified) | 35 |  | 11.6 µM [rising, single point]
16 | COc1cc(C)nc(N(Cc2ccccc2)S(=O)(=O)c2ccccc2)n1 | 2.11 | 13 µM [rising, partial curve, poor fit] | 
17 | COC1CCCN(C(=O)c2ccc3nc(Cc4cccc(Cl)c4)oc3c2)C1 (stereo unspecified) | -12.5 | 32.6 µM [falling, single point] | 
18 | CCCN(CCC)S(=O)(=O)c1ccc(NS(=O)(=O)c2ccc(F)cc2)cc1 | -10.8 |  | 
19 | Cc1ccc(NS(=O)(=O)c2ccc(NC(=O)C3CC3)cc2)c(C)c1 |  |  | 5.17 µM [falling, single point]
20 | NC(=O)CC(c1ccccc1)c1ccc2c(c1)OCO2 (stereo unspecified) | -23.9 | 29.1 µM [rising, single point] | 

Row | SMILES | cell number change [%] | AC50 [1] | AC50 [2]
21 | Cc1ccc(C2(C)NC(=O)N(CC(=O)NNC(=O)c3ccccc3F)C2=O)cc1 (stereo unspecified) | -25.2 | 6.51 µM [falling, single point] | 
22 | CC(c1nnc(SCC(=O)c2c(N)n(C3CC3)c(=O)[nH]c2=O)n1-c1ccc(F)cc1)N(C)C (stereo unspecified) | -21.5 |  | 
23 | CC/C(=C\c1oc2cc3ccccc3cc2[n+]1CC)Nc1ccccc1 | -32.3 |  | 0.517 µM [falling, full curve]
24 | COc1ccccc1CNC(=O)N1CCN(S(=O)(=O)c2ccc(C)cc2)CC1 | 19.8 |  | 
25 | Cc1[nH]c2ccccc2c1C(=O)CSc1nccc(=O)[nH]1 | 29 |  | 0.00517 µM [rising, full curve, poor fit]
26 | C=CCc1cc(C)ccc1OCCCn1ccnc1 | -28 | 16.4 µM [falling, single point] | 
27 | COc1ccc(CCCc2nnc(SCc3nc4ccccc4c(=O)[nH]3)n2C)cc1 | -4.74 |  | 
28 | COc1ccc2c(c1)CCc1c(C(=O)N3CC4(C)CC3CC(C)(C)C4)noc1-2 (stereo unspecified) | 46.7 | 0.103 µM [falling, partial curve, poor fit] | 29.1 µM [rising, single point]
29 | O=C(NNC(=O)c1cc(Br)c(Br)s1)c1ccncc1 | 6.36 | 1.3 µM [rising, partial curve, poor fit] | 
30 | Cc1ccccc1NC(=O)NNC(=O)CCc1ccccc1 | 13.4 | 29.1 µM [rising, single point] | 
31 | COc1ccc2oc(C(=O)OCC(=O)N(C)c3ccccc3)c(C)c2c1 | 43.1 |  | 16.4 µM [rising, partial curve]
32 | CC(=O)OC[C@H]1O[C@@H](Sc2cccc3cccnc23)[C@H](OC(C)=O)[C@@H](OC(C)=O)[C@H]1OC(C)=O | -2.63 | 29.1 µM [rising, single point] | 
33 | Cc1ncn(C23CC4CC(CC(C4)C2)C3)n1 | -12.8 | 0.0651 µM [falling, full curve, poor fit] | 0.0651 µM [falling, full curve, poor fit]
34 | CCN1CCN(c2ccc(S(=O)(=O)N3CCOCC3)cc2NC(=O)c2ccc(C)c(C)c2)CC1 | 37.3 | 0.82 µM [rising, full curve, poor fit] | 6.51 µM [rising, partial curve, poor fit]
35 | Brc1ccc(N/N=C(/N=Nc2nn[nH]n2)c2ccccc2)cc1 | 5.81 | 0.0651 µM [rising, single point] | 
36 | CSc1cccc(NC(=O)c2cccc3cccnc23)c1 | 9.68 | 2.31 µM [falling, partial curve, poor fit] | 
37 | CC(C)n1cnc2c(=S)nc[nH]c21 | 12.8 | 0.259 µM [rising, full curve] | 4.11 µM [falling, single point]
38 | COc1cccc(N2CCN(C(=O)Nc3ccccc3Cl)CC2)c1 |  | 0.231 µM [rising, full curve, poor fit] | 0.259 µM [rising, full curve]
39 | Cc1ccc(-n2cc(-c3ccccc3)c3c(=O)[nH]cnc32)cc1 | 24.4 | 18.4 µM [rising, single point] | 
40 | Cn1c(=O)c2ccccc2n(CC(=O)NC2CCCCC2)c1=O | 15.4 | 0.058 µM [rising, full curve] | 

From compound 18 as far as 19, as listed above:
Row | SMILES | cell number change [%] | AC50 [1] | AC50 [2]
18 | CCCN(CCC)S(=O)(=O)c1ccc(NS(=O)(=O)c2ccc(F)cc2)cc1 | -10.8 |  | 
19 | Cc1ccc(NS(=O)(=O)c2ccc(NC(=O)C3CC3)cc2)c(C)c1 |  |  | 5.17 µM [falling, single point]

(next part)

Row | SMILES | cell number change [%] | AC50 [1] | AC50 [2]
41 | CCc1cc(=O)[nH]c(SCc2cccc3ccccc23)n1 |  | 29.1 µM [rising, single point] | 
42 | CCn1nc(C)cc1C(=O)N1CCCC(N2CCN(c3cccc(Cl)c3)CC2)C1 (stereo unspecified) | -3.18 |  | 
43 | CC(=O)C[C@H](O)CC(=O)[C@H]1OC(=O)CC/C=C\Cc2ccccc21 | -37.2 | 1.16 µM [falling, single point] | 29.1 µM [falling, single point]
44 | COc1ccc(N(CCCN2C(=O)c3cccc4cccc(c34)C2=O)C(=O)c2cccc(OC)c2)cc1 | -23.1 |  | 
45 | CCCn1nc2cc(C(=O)NCc3ccc4c(c3)OCO4)ccc2c1OCC | -49.1 | 16.4 µM [falling, single point] | 18.4 µM [falling, single point]
46 | CC(NC(=O)c1ccccc1)c1ccc(Br)cc1 (stereo unspecified) | 30.9 | 23.1 µM [rising, single point] | 29.1 µM [rising, single point]
47 | COc1ccc(Cl)cc1NC(=S)NCCN1CCOCC1 | -21.2 | 29.1 µM [falling, single point] | 
48 | C#CCOCCOCCOCCNc1nc(N2CCN(C(=O)CCCCCCCCCCNC(=O)[C@@H](CCSC)n3cc(CCO)nn3)CC2)nc(N2CCN(C(=O)CCCCCCCCCCNC(=O)[C@H](CCCN=C(N)N)n3cc(C[C@@H](C)CC)nn3)CC2)n1 | -87.3 | 13 µM [falling, partial curve] | 13 µM [falling, partial curve]
49 | O=C(CCCNS(=O)(=O)c1ccc(Br)cc1)N1CC[C@@]2(O)CCCC[C@H]2C1 | -29.9 | 16.4 µM [falling, partial curve] | 
50 | O=C(NCCc1cccc(F)c1)C1CCC(=O)N(CCCc2ccccc2)C1 (stereo unspecified) | -6.93 | 0.58 µM [rising, single point] | 
51 | O=C(NCC1CCCN(Cc2ccc3c(c2)OCCO3)C1)c1ccc2c(c1)OCO2 (stereo unspecified) | 8.03 |  | 
52 | COC(=O)c1ccc(C(C(=O)NC2CCCCC2)N(CCc2ccccc2)C(=O)Cc2cccs2)cc1 (stereo unspecified) | -7.56 | 0.517 µM [falling, partial curve, poor fit] | 
53 | COc1cc(C(=O)Nc2nc3ccccc3[nH]2)ccc1OC(F)F | 6.34 | 6.51 µM [falling, single point] | 3.26 µM [falling, single point]
54 | CCOC(=O)CNC(=O)Cn1c(C)cc2ccccc2c1=O | 7.34 | 0.103 µM [falling, full curve, poor fit] | 
55 | CN(C)CCCNC(=S)NCC(c1ccc(Cl)cc1Cl)c1c[nH]c2ccccc12 (stereo unspecified) | -0.833 |  | 
56 | CCCn1c(N)c(Sc2ccc([N+](=O)[O-])cc2)c(=O)n(CCC)c1=O |  | 0.651 µM [rising, single point] | 
57 | O=C1NCC(COCc2ccco2)O1 (stereo unspecified) |  | 6.51 µM [falling, full curve] | 
58 | Cn1nc(CC(=O)NCc2ccc(C(F)(F)F)cc2)c2ccccc2c1=O | -23.2 |  | 
59 | CCOC(=O)C1CCCN(C(=O)Nc2c(-c3ccccc3)noc2C)C1 (stereo unspecified) | -40 | 7.31 µM [falling, partial curve, poor fit] | 3.66 µM [falling, partial curve]
